The text below walks through data of doi:10.1101/2023.05.25.542299.

The chains behind the UniProt entries cited, without tags or fusion partners. Where a name states a change or a piece, a line headed by the entry shows the natural chain unless it says otherwise. A line that says so, or that is headed by a name, gives the form on record, which may keep a tag or linker.
FLAG-tagged full-length OPTN-IVD-NEMO expressed in 293T NEMO knockout cells (Q9Y6K9, form named): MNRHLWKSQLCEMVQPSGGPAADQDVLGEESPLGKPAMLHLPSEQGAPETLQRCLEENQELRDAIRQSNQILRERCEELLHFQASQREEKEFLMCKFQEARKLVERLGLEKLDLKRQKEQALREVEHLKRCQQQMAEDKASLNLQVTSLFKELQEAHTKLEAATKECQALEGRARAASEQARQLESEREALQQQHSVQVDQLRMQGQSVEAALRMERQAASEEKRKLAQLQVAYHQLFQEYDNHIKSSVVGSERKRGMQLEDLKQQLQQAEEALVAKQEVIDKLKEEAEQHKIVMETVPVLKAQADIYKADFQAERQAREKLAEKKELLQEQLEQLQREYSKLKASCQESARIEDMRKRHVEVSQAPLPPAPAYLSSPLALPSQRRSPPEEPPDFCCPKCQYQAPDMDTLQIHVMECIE

The experiment deals with FLAG-tagged full-length OPTN-IVD-NEMO expressed in 293T NEMO knockout cells (human) (UniProt Q9Y6K9). The experiment is described as follows: non-reducing SDS-PAGE of disulfide-bonded dimers; lysates of transfected 293T NEMO KO cells in non-ionic detergent buffer; SDS sample buffer without β-mercaptoethanol, not boiled; anti-NEMO Western blot. Background: In western blotting, separated proteins are transferred to a membrane and probed.

Results are given in words; binding and its absence hold for the method and conditions named. Some entries that bind do so weakly or less than the wild type.

Take “FLAG-tagged full-length OPTN-IVD-NEMO expressed in 293T NEMO knockout cells (from UniProt Q9Y6K9 1-419)”: the binding entry is given as “binds”.
